Reference: patent US20260159812A1
These are yes or no findings as the source states them, for the method shown. Binding seen in cells or lysates may run through a third protein. Some entries that bind do so weakly or less than the wild type. For some assays here: Sequences can lack the tags named with a protein. Blank lines part the entries; values can stand above or below the binder they belong to.

The chains behind the UniProt entries cited, without tags or fusion partners. Residues count along the entry.
UniProt Q08369: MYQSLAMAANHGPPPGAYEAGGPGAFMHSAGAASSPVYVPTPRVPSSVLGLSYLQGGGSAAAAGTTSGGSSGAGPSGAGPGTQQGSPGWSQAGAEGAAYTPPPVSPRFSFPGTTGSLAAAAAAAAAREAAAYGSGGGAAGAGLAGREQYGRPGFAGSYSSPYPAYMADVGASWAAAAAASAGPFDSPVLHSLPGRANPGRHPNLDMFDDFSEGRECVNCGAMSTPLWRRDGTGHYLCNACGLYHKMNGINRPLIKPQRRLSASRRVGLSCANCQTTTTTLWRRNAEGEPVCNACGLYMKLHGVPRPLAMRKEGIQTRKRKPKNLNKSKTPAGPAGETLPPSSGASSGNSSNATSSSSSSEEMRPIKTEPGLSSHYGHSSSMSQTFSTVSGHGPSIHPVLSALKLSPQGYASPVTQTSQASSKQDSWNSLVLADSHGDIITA
UniProt Q61039: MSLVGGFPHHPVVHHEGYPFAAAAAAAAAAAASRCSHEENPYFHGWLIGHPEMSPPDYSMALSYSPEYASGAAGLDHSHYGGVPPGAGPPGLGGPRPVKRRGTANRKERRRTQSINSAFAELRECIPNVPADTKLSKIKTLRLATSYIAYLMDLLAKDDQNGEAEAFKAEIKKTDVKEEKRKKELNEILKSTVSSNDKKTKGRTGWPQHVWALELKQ
UniProt Q6P9Z1, residues 2-483: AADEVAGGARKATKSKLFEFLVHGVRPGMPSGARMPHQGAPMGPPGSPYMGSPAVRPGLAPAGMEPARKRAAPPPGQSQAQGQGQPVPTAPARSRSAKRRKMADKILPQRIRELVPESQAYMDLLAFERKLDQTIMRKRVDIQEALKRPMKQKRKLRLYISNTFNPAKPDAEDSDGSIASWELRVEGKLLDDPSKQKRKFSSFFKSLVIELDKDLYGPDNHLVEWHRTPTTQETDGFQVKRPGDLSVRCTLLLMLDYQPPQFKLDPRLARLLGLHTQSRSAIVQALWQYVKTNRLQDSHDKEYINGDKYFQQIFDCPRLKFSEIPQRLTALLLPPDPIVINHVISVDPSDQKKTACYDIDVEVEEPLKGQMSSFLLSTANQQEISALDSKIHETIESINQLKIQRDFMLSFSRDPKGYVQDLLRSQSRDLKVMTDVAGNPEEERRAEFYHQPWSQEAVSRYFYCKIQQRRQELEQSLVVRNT
UniProt Q6STE5: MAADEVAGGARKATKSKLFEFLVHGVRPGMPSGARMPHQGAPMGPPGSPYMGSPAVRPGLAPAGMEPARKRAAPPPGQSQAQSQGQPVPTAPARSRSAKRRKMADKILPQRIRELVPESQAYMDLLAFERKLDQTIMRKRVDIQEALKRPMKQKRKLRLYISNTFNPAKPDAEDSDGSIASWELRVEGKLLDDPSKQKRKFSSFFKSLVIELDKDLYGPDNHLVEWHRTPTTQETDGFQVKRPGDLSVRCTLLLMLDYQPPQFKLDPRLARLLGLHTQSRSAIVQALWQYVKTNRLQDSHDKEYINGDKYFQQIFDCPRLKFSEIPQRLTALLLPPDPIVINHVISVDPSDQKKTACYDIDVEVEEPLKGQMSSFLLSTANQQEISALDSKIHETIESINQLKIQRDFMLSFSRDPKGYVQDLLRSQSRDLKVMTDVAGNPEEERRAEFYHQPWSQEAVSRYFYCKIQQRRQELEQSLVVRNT

How the values were obtained:
Gata4^myc = Gata4^myc (UniProt Q08369); assay: FLAG co-immunoprecipitation from transfected HEK293 cells, anti-myc immunoblot
Hand2^myc = Hand2^myc (UniProt Q61039); assay: as above
Smarcd3/BAF60c (mouse) = Smarcd3/BAF60c (mouse) (UniProt Q6P9Z1); assay: miniTurbo proximity biotinylation (BioID) in MEFs, streptavidin pulldown and proteomics; proximity, not direct binding
Gata4 = Gata4 (UniProt Q08369); assay: miniTurbo proximity biotinylation (BioID) in AGHMT+PHF7^miniTurbo MEFs, streptavidin pulldown and proteomics; proximity, not direct binding
SMARCD3^FLAG-HA [1] = molecular target: SMARCD3^FLAG-HA (UniProt Q6STE5); assay: FLAG co-immunoprecipitation from transfected HEK293 cells (heading sentence of the results section)
SMARCD3^FLAG-HA [2] = molecular target: SMARCD3^FLAG-HA (UniProt Q6STE5); assay: FLAG co-immunoprecipitation from transfected HEK293 cells, anti-Ty1 immunoblot
SMARCD3^FLAG-HA [3] = molecular target: SMARCD3^FLAG-HA (UniProt Q6STE5); assay: FLAG co-immunoprecipitation / proximity biotinylation (referred back to)
SMARCD3^FLAG-HA [4] = molecular target: SMARCD3^FLAG-HA (UniProt Q6STE5); assay: FLAG co-immunoprecipitation from transfected HEK293 cells (legend of FIG. 5, panel E)

binding (Gata4^myc): binds
binding (Hand2^myc): binds
B1: PHF7^FLAG-HA (protein, not shown: small tags and cut ends)
chain: MKTVKEKKECQRLRKSAKTRRVTQRKPSSGPVCWLCLREPGDPEKLGEFLQKDNISVHYFCLILSSKLPQRGQSNRGFHGFLPEDIKKEAARASRKICFVCKKKGAAINCQKDQCLRNFHLPCGQERGCLSQFFGEYKSFCDKHRPTQNIQHGHVGEESCILCCEDLSQQSVENIQSPCCSQAIYHRKCIQKYAHTSAKHFFKCPQCNNRKEFPQEMLRMGIHIPDRDAAWELEPGAFSDLYQRYQHCDAPICLYEQGRDSFEDEGRWCLILCATCGSHGTHRDCSSLRSNSKKWECEECSPAAATDYIPENSGDIPCCSSTFHPEEHFCRDNTLEENPGLSWTDWPEPSLLEKPESSRGRRSYSWRSKGVRITNSCKKSK

binding (Smarcd3/BAF60c (mouse)): binds
binding (Gata4): binds
B2: PHF7^miniTurbo (protein)
chain: B1 chain

binding (SMARCD3^FLAG-HA [1]): binds
binding (SMARCD3^FLAG-HA [2]): binds
binding (SMARCD3^FLAG-HA [3]): binds
binding (SMARCD3^FLAG-HA [4]): binds
B3: PHF7^3xTy1 (protein, not shown: small tags and cut ends)
chain: B1 chain
